PubChem BioAssay AID1259308 – NCATS | 2017

Assay: 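Genes whose loss raises luciferase production in HEK293 cells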 (primary screen)
System: human HEK293 embryonic kidney cells stably expressing firefly luciferase (HEK-CMV-Luc2-Hygro)
Reagents: single siRNA against human genes, 0.8 pmol siRNA per well
Time to read-out: 72 h
Measured: 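Reporter luminescence and viable-cell signal on separate replicate plates, given as percent of non-targeting control and median/MAD z-scores, plus per-cell luciferase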
Reading the numbers: total luciferase, z-score and total luciferase, % of control: higher = more reporter protein produced; luciferase per cell, z-score: higher = more reporter output per viable cell; viable cells, % of control: higher = more viable cells
Hit rule: 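An siRNA counts as active if its total luciferase robust z-score exceeds 3; genes with two or more such siRNAs out of three were retested with fresh siRNAs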
Meaning of the calls: active = raised luciferase; inactive = no rise
In all, the deposit lists about 59,000 reagents; this is an unselected part. About 1,510 of them (2.6%) were called active. 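Calls use total luciferase alone and ignore viability, so some active siRNAs may act by altering cell number.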 The numbers tell different reagents against one gene apart.

| gene | reagent no. | total luciferase, z-score | total luciferase, % of control | luciferase per cell, z-score | viable cells, % of control | outcome |
| --- | --- | --- | --- | --- | --- | --- |
| EIF4A2 | 1 | 0.0656 | 83.2 | 0.48 | 81.9 | inactive |
| EIF4A2 | 2 | -0.382 | 74.3 | -0.373 | 91.6 | inactive |
| EIF4A2 | 3 | -0.715 | 67.7 | -0.569 | 87.8 | inactive |
| DMC1 | 1 | 0.755 | 96.9 | 0.525 | 94.3 | inactive |
| DMC1 | 2 | 0.14 | 84.7 | 0.625 | 80.3 | inactive |
| DMC1 | 3 | -0.105 | 79.8 | -0.298 | 96.4 | inactive |
| CCNE2 | 1 | -0.14 | 79.1 | -0.617 | 104 | inactive |
| CCNE2 | 2 | 0.856 | 98.9 | 0.657 | 93 | inactive |
| CCNE2 | 3 | -0.175 | 78.4 | -0.305 | 94.9 | inactive |
| MRPL53 | 1 | -1.5 | 52 | -0.545 | 67.1 | inactive |
| MRPL53 | 2 | 0.177 | 85.4 | -0.148 | 99.2 | inactive |
| MRPL53 | 3 | 0.48 | 91.4 | 0.89 | 80.8 | inactive |
| LOC100288254 | 1 | -0.29 | 76.1 | -0.301 | 92.1 | inactive |
| LOC100288254 | 2 | -0.299 | 75.9 | -0.233 | 90.2 | inactive |
| LOC100288254 | 3 | 0.31 | 88.1 | -0.133 | 102 | inactive |
| PNMA6A | 1 | 1.12 | 104 | 2.09 | 67 | inactive |
| PNMA6A | 2 | -0.873 | 64.5 | -0.877 | 90.8 | inactive |
| PNMA6A | 3 | 0.368 | 89.2 | 0.112 | 96.8 | inactive |
| SERTAD4-AS1 | 1 | -0.00752 | 81.7 | 0.244 | 85.7 | inactive |
| SERTAD4-AS1 | 2 | -1.42 | 53.6 | -1.61 | 91.5 | inactive |
| SERTAD4-AS1 | 3 | 0.524 | 92.3 | -0.24 | 110 | inactive |
| SNAPC4 | 1 | -0.672 | 68.5 | -0.695 | 91.9 | inactive |
| SNAPC4 | 2 | -0.511 | 71.7 | -0.757 | 97.8 | inactive |
| SNAPC4 | 3 | 0.157 | 85 | -0.783 | 117 | inactive |

Targets listed so far whose gene name starts with L or l (3):
| gene | reagent no. | total luciferase, z-score | total luciferase, % of control | luciferase per cell, z-score | viable cells, % of control | outcome |
| --- | --- | --- | --- | --- | --- | --- |
| LOC100288254 | 1 | -0.29 | 76.1 | -0.301 | 92.1 | inactive |
| LOC100288254 | 2 | -0.299 | 75.9 | -0.233 | 90.2 | inactive |
| LOC100288254 | 3 | 0.31 | 88.1 | -0.133 | 102 | inactive |

Next records:
| gene | reagent no. | total luciferase, z-score | total luciferase, % of control | luciferase per cell, z-score | viable cells, % of control | outcome |
| --- | --- | --- | --- | --- | --- | --- |
| GTF2IRD1 | 1 | -0.388 | 74.2 | 0.575 | 71.2 | inactive |
| GTF2IRD1 | 2 | -1.22 | 57.6 | -0.998 | 83.7 | inactive |
| GTF2IRD1 | 3 | 0.655 | 94.9 | 0.433 | 94.6 | inactive |
| FUBP3 | 1 | -0.997 | 62.1 | -0.993 | 90.1 | inactive |
| FUBP3 | 2 | -0.287 | 76.2 | -0.786 | 105 | inactive |
| FUBP3 | 3 | 2.1 | 124 | 2.26 | 76.3 | inactive |
| TTF1 | 1 | -0.171 | 78.5 | -0.405 | 97.6 | inactive |
| TTF1 | 2 | 1.4 | 110 | 1.62 | 80 | inactive |
| TTF1 | 3 | -1.01 | 61.8 | -0.843 | 86.2 | inactive |
| CABP1 | 1 | 1.17 | 105 | 1.2 | 85.8 | inactive |
| CABP1 | 2 | -0.401 | 73.9 | -0.586 | 96.4 | inactive |
| CABP1 | 3 | -1.22 | 57.6 | -1.11 | 86.1 | inactive |
| TMLHE | 1 | 0.779 | 97.4 | 0.455 | 96.5 | inactive |
| TMLHE | 2 | 0.521 | 92.2 | -0.123 | 106 | inactive |
| TMLHE | 3 | -0.982 | 62.4 | -1.19 | 95.4 | inactive |
| IL21 | 1 | 0.896 | 99.7 | 0.67 | 93.4 | inactive |
| IL21 | 2 | 1.8 | 118 | 2.8 | 62.9 | inactive |
| IL21 | 3 | 1.47 | 111 | 0.995 | 95.5 | inactive |
| TMEM139 | 1 | -0.000877 | 81.9 | 0.256 | 85.5 | inactive |
| TMEM139 | 2 | -1.32 | 55.7 | -1.17 | 84.7 | inactive |
| TMEM139 | 3 | -0.521 | 71.5 | 0.0599 | 78.7 | inactive |
| FLCN | 1 | -0.337 | 75.2 | 0.0903 | 82 | inactive |
| FLCN | 2 | -0.526 | 71.4 | -0.68 | 95.5 | inactive |
| FLCN | 3 | -0.774 | 66.5 | -0.208 | 78.5 | inactive |
| C18orf63 | 1 | 1.24 | 107 | 1.27 | 85.2 | inactive |
| C18orf63 | 2 | 0.147 | 84.8 | -0.327 | 103 | inactive |
| C18orf63 | 3 | -1.92 | 43.6 | -0.814 | 60.4 | inactive |
| AASDHPPT | 1 | -0.0185 | 81.5 | -0.438 | 102 | inactive |
| AASDHPPT | 2 | -1.17 | 58.6 | 0.0117 | 65.3 | inactive |
| AASDHPPT | 3 | -0.391 | 74.1 | -0.793 | 102 | inactive |
| PLEKHA2 | 1 | -0.235 | 77.2 | -0.779 | 106 | inactive |
| PLEKHA2 | 2 | 1.45 | 111 | 1.19 | 90.6 | inactive |
| PLEKHA2 | 3 | 0.273 | 87.3 | 0.786 | 79.3 | inactive |
